Here are results for 25 compounds from PubChem BioAssay AID330 (DTP/NCI, 2004).

The list is a part of this screen's results and no random one: it gathers tests that were run many times, whatever their T/C, doses with no T/C, and many T/C values between a quarter and a half above the control. Other doses and runs of a compound stand elsewhere. T/C gives the treated animals as a percentage of the vehicle group. Some doses have a count of surviving animals in place of a T/C: the source holds a T/C of zero for them, seemingly a mark for toxic or unscored doses. Some survivor counts are full or nearly so, which does not show that the dose was tolerated: survival well below the control is almost never listed, so the zero probably covers shortened survival too. Counts of survivors are from the toxicity check (mostly the fifth day) where no day follows; animals may have died later. Schedules are NCI's codes, read here as Q, the interval in days (D) or hours (H), X, the number of doses. For survival time, this PubChem deposit counts one and a half times the control or more as active, and values a quarter to a half above the control carry no call in these data; other NCI protocols may use other cut-offs. Some T/C values are followed by the survivors on the day toxicity was checked, most often the fifth; without a count, all were alive then. Some entries hold several experiments; the results are listed from low to high.

The subject of this test is P388 leukemia ip, CD2F1 mice, survival T/C. The test is described as follows: NCI In Vivo Anticancer Drug Screen. Data for tumor model P388 Leukemia (intraperitoneal) in CD2F1 (CDF1) mice. The settings on record: T/C endpoint: median survival time, higher T/C = longer survival.
[1] abbreviates: dose: 50.0 mg/kg/injection, schedule: Q01DX009 (ip), vehicle: saline with Tween-80.
Setting [2] is: dose: 100.0 mg/kg/injection, schedule: Q01DX009 (ip), vehicle: saline with Tween-80.
Setting [3] is: dose: 200.0 mg/kg/injection, schedule: Q01DX009 (ip), vehicle: saline with Tween-80.
Setting [4] is: dose: 240.0 mg/kg/injection, schedule: Q01DX005 (ip), vehicle: saline.
[5] abbreviates: dose: 100.0 mg/kg/injection, schedule: Q01DX009 (ip), vehicle: Klucel (hydroxypropylcellulose) (HPC).
[6] abbreviates: dose: 200.0 mg/kg/injection, schedule: Q01DX009 (ip), vehicle: Klucel (hydroxypropylcellulose) (HPC).
Where [7] appears, read: dose: 240.0 mg/kg/injection, schedule: Q01DX005 (ip), vehicle: saline with Tween-80.
The mark [8] stands for this setting: dose: 120.0 mg/kg/injection, schedule: Q01DX005 (ip), vehicle: saline with Tween-80.
The mark [9] stands for this setting: dose: 25.0 mg/kg/injection, schedule: Q01DX009 (ip), vehicle: saline.
Where [10] appears, read: dose: 50.0 mg/kg/injection, schedule: Q01DX009 (ip), vehicle: saline.
The mark [11] stands for this setting: dose: 3.12 mg/kg/injection, schedule: Q01DX009 (ip), vehicle: saline.
[12] abbreviates: dose: 6.25 mg/kg/injection, schedule: Q01DX009 (ip), vehicle: saline.
Setting [13] is: dose: 12.5 mg/kg/injection, schedule: Q01DX009 (ip), vehicle: saline.

As to `CCCCN(C)N=Nc1ccc(CCCC(=O)OCC)cc1`, the T/C runs as follows: under setting [1], 145 % of control; under setting [2], 127 % of control; (dose: 132.0 mg/kg/injection, schedule: Q04DX003 (ip), vehicle: saline with Tween-80) 131 % of control; (dose: 200.0 mg/kg/injection, schedule: Q04DX003 (ip), vehicle: saline with Tween-80) 136 and 140 % of control; (dose: 300.0 mg/kg/injection, schedule: Q04DX003 (ip), vehicle: saline with Tween-80) 131 % of control; (dose: 400.0 mg/kg/injection, schedule: Q04DX003 (ip), vehicle: saline with Tween-80) 136 % of control. The survivor count is, setting by setting: (dose: 100.0 mg/kg/injection, schedule: Q04DX003 (ip), vehicle: saline with Tween-80) 0 of 6; under setting [3], 5 of 6.

Regarding `CNC(C#N)C(C)F` (stereo not given), the survivor count is, setting by setting: (dose: 120.0 mg/kg/injection, schedule: Q01DX005 (ip), vehicle: saline) 2 of 6; under setting [4], 0 of 6.

In the case of `S=C1SCN(c2ccc(Br)cc2)CN1c1ccc2[nH]c(=S)sc2c1`, the survivor count reads like this: (dose: 50.0 mg/kg/injection, schedule: Q01DX009 (ip), vehicle: Klucel (hydroxypropylcellulose) (HPC)) 6 of 6; under setting [5], 6 of 6; under setting [6], 0 of 6.

For the compound `O=C(O)c1cc2ccccc2c(N=Nc2cc(C(F)(F)F)ccc2Cl)c1O`, for the setting “dose: 100.0 mg/kg/injection, schedule: Q01DX005 (ip), vehicle: saline with Tween-80”, the survivor count was 5 of 5.

As for `COC(=O)[C@]1(O)Cc2c(O)c3c(c(O)c2[C@@H](OC2CC(N)C(O)C(C)O2)C1)C(=O)c1c(OC)cccc1C3=O` (stereo not given in full), the T/C reads like this: (dose: 12.5 mg/kg/injection, schedule: Q01DX009 (ip), vehicle: water) 129 % of control; (dose: 25.0 mg/kg/injection, schedule: Q01DX009 (ip), vehicle: water) 125 and 129 % of control; (dose: 50.0 mg/kg/injection, schedule: Q01DX009 (ip), vehicle: water) 129 [5 of 6 alive], 138, 146 % of control; (dose: 75.0 mg/kg/injection, schedule: Q01DX009 (ip), vehicle: water) 146 [5 of 6 alive] and 149 % of control. Besides, where the note is “dose: 100.0 mg/kg/injection, schedule: Q01DX009 (ip), vehicle: water”, the survivor count was 3 of 6.

With `CC(=O)c1c[nH]c(=O)c2cc3c(cc12)OCO3`, under setting [7], the survivor count is reported as 6 of 6.

Consider `[Br][Pb]([Br])([c]1ccccc1)[c]1ccccc1`, for which the T/C under setting [1] was 131 % of control. In addition, the survivor count under setting [3] is 6 of 6.

With `CN1CCC(OC(=O)c2ccc3ncccc3c2)CC1`, the survivor count (dose: 200.0 mg/kg/injection, schedule: Q04DX003 (ip), vehicle: saline) is given as 0 of 6.

With `O=C(Nc1cc(S(=O)(=O)O)cc2cc(S(=O)(=O)O)c(N=Nc3cc(Nc4nc(Cl)nc(Nc5ccc(S(=O)(=O)O)cc5)n4)ccc3S(=O)(=O)O)c(O)c12)c1ccccc1`, the survivor count under setting [4] is reported as 1 of 6.

As for `CC(C)N1CSC(=S)N(Cc2ccccc2)C1`, the survivor count by setting is: under setting [3], 1 of 6; (dose: 400.0 mg/kg/injection, schedule: Q01DX009 (ip), vehicle: saline with Tween-80) 0 of 6.

For `CCCCCCCCCCCCCOC(=O)CC(C(=O)OCCCCCCCCCCCCC)S(=O)(=O)O` (stereo not given), the survivor count under setting [6] was 0 of 6.

Turning to `COc1ccc(OC)c(CCc2cc(OC)ccc2OC)c1`, the survivor count runs as follows: (dose: 1.56 mg/kg/injection, schedule: Q01DX009 (ip), vehicle: DMSO) 6 of 6; (dose: 3.12 mg/kg/injection, schedule: Q01DX009 (ip), vehicle: DMSO) 6 of 6; (dose: 12.5 mg/kg/injection, schedule: Q01DX009 (ip), vehicle: DMSO) 6 of 6; (dose: 100.0 mg/kg/injection, schedule: Q01DX009 (ip), vehicle: DMSO) 6 of 6.

As to `O=C1CCOc2cccc(c2)OCCC(=O)OCCCOC(=O)CCOc2cccc(c2)OCCC(=O)OCCCO1`, the survivor count was 6 of 6 (dose: 100.0 mg/kg/injection, schedule: Q01DX005 (ip), vehicle: Klucel (hydroxypropylcellulose) (HPC)) and 6 of 6 (dose: 200.0 mg/kg/injection, schedule: Q01DX005 (ip), vehicle: Klucel (hydroxypropylcellulose) (HPC)).

Regarding `O=C(Nc1ccccc1Cl)Oc1ccc(C(=O)c2ccccc2)cc1`, the survivor count is, setting by setting: (dose: 60.0 mg/kg/injection, schedule: Q01DX005 (ip), vehicle: saline with Tween-80) 6 of 6; under setting [8], 6 of 6; under setting [7], 6 of 6.

As to `O=C1OCC2C3C=CC(O3)C12` (stereo not given), under “dose: 400.0 mg/kg/injection, schedule: Q04DX003 (ip), vehicle: saline”, the survivor count is reported as 1 of 6.

Consider `C=CC(=NC(C)(C)C)Nc1ccccc1Cl`, for which the survivor count was 3 of 6 under setting [9]; 0 of 6 under setting [1]; 0 of 6 under setting [10]; 0 of 6 under setting [2]; 0 of 6 under setting [3].

Regarding `CC(C)C1C(=O)NC(c2ccc(N)cc2)c2ccccc21` (stereo not given), the survivor count (dose: 100.0 mg/kg/injection, schedule: Q01DX009 (ip), vehicle: saline) was 6 of 6.

On to `Cc1cccc(C)c1NC(=O)NNC(N)=S`, for which the T/C is, setting by setting: under setting [11], 97, 102, 107 % of control [5 of 6 alive]; under setting [12], 90, 101 [5 of 6 alive], 104 % of control [5 of 6 alive]; under setting [13], 94, 98, 99, 100 % of control; under setting [9], 89, 96, 111, 120 % of control. Moreover, the survivor count is 6 of 6 under setting [11]; 6 of 6 under setting [12]; 6 of 6 under setting [13]; 5 of 6 under setting [9]; 1 of 6 under setting [10]; 0 of 6 under setting [2]. For the same compound, the survivor count under setting [3] is 0 of 6.

In the case of `O=S(=O)(O)C(I)S(=O)(=O)O`, under “dose: 200.0 mg/kg/injection, schedule: Q01DX009 (ip), vehicle: saline”, the survivor count is 1 of 6.

Regarding `CC(C)(Sc1cc(Cl)c(Cl)c(Cl)c1)C(=O)OCCN1CCOCC1`, under setting [8], the survivor count is 6 of 6.

With `C[N+]1(C)CCC(OC(=O)C(O)(c2ccccc2)C2CCCC2)C1` (stereo not given), the survivor count is on record as 0 of 6 under setting [5] and 0 of 6 under setting [6].

Take `Cc1cccn2cnnc12`: the survivor count (dose: 400.0 mg/kg/injection, schedule: Q01DX009 (ip), vehicle: saline) is 0 of 6.

With `CN(C)C(=[Se])[Se]C(=[Se])N(C)C`, the survivor count reads like this: (dose: 60.0 mg/kg/injection, schedule: Q01DX005 (ip), vehicle: Klucel (hydroxypropylcellulose) (HPC)) 0 of 6; (dose: 120.0 mg/kg/injection, schedule: Q01DX005 (ip), vehicle: Klucel (hydroxypropylcellulose) (HPC)) 0 of 6; (dose: 240.0 mg/kg/injection, schedule: Q01DX005 (ip), vehicle: Klucel (hydroxypropylcellulose) (HPC)) 0 of 6.

On to `Clc1ccc(-c2noc(/C=C\c3ccccc3)n2)cc1`, for which, under setting [5], the survivor count is 6 of 6.

On to `N/C(=N\N=C\c1cc(Br)cc(Br)c1O)N/N=C/c1cc(Br)cc(Br)c1O`, for which the survivor count is, setting by setting: (dose: 100.0 mg/kg/injection, schedule: Q01DX009 (ip), vehicle: distilled water + Tween-80) 5 of 6; (dose: 400.0 mg/kg/injection, schedule: Q01DX009 (ip), vehicle: distilled water + Tween-80) 2 of 6.
